From the supplement of paper PMC4962491
± gives the standard deviation of the averaged measurements. Only a part is listed here, and it is no random draw. Single values are uncertain here, since repeats match poorly. Numbered stars: 1 amine (or outer) side, 2 acyl side, 3 side chain; on linkers, the order of the positions; unused ones are H or OH. Bridge positions count the residues as written; N and C are the ends. Square brackets hold non-standard residues; d marks the D form. Peptide text beside a SMILES is read from it. I, II: the chains in the order shown. Actinocin(9to1) = Cc1c2oc3c(C)ccc(C(=O)[*:1])c3nc-2c(C(=O)[*:2])c(N)c1=O; NMeV = CN[C@H](C(=O)O)C(C)C; Sar = CNCC(=O)O

System: FaDu
Assay: mitochondrial oxygen consumption rate normalised to cell number, Z score over the library; higher = higher oxygen consumption (negative = OCR reduction)
Details: treatment time 24 h, assay medium: 5 mM galactose, 5 mM pyruvate, 4 mM glutamine
Protocol: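 Primary screen: FaDu cells were incubated 24 h with Pharmakon 1600 / TDI oncology set compounds at 2 or 10 uM. Mitochondrial-specific OCR (basal minus 2 uM antimycin A) was measured on a Seahorse XF96 in assay medium with 5 mM galactose, 5 mM pyruvate and 4 mM glutamine, then corrected for Hoechst cell number and expressed as a Z score […]. Compounds that cut cell number by >66% were excluded. Two repeats.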

Row | SMILES | mitochondrial oxygen consumption rate normalised (2 µM) | mitochondrial oxygen consumption rate normalised (10 µM)
1 | COc1ccc2cc3[n+](cc2c1OC)CCc1cc2c(cc1-3)OCO2 | -3.127 ± 0.03 | -5.87 ± 0.012
2 | COc1ccc2c(c1)c(CC(=O)OCC(=O)O)c(C)n2C(=O)c1ccc(Cl)cc1 | 0.0192 ± 0.44 | 
3 | Cc1c2oc3c(C)ccc(C(=O)N[C@@H]4C(=O)N[C@H](C(C)C)C(=O)N5CCC[C@H]5C(=O)N(C)CC(=O)N(C)[C@@H](C(C)C)C(=O)O[C@@H]4C)c3nc-2c(C(=O)N[C@@H]2C(=O)N[C@H](C(C)C)C(=O)N3CCC[C@H]3C(=O)N(C)CC(=O)N(C)[C@@H](C(C)C)C(=O)O[C@@H]2C)c(N)c1=O (I: T[dV]P[Sar][NMeV] / II: T[dV]P[Sar][NMeV]; ester I:1-I:C, II:1-II:C; linker I:N-II:N via Actinocin(9to1)) | -3.53 ± 0.23 | -4.48 ± 0.4
4 | CC(=O)NC[C@H]1CN(c2ccc(N3CCOCC3)c(F)c2)C(=O)O1 | -0.179 ± 0.69 | 
5 | O=C1C(O)=C(O)C(=O)C(O)=C1O | 0.302 ± 1.1 | 0.611 ± 0.72
6 | Cc1nccn1CC1CCc2c(c3ccccc3n2C)C1=O (stereo unspecified) | 0.447 ± 0.81 | 
7 | NC(=O)c1cc[n+](CC2=C(C(=O)[O-])N3C(=O)[C@@H](NC(=O)Cc4cccs4)[C@H]3SC2)cc1 | 0.401 ± 0.17 | 
8 | CC1=C(C(=O)O)N2C(=O)[C@@H](NC(=O)[C@H](N)c3ccccc3)[C@H]2SC1 | 1.31 ± 0.22 | 
9 | CC[C@H](C)C(=O)O[C@H]1C[C@H](O)C=C2C=C[C@H](C)[C@H](CC[C@@H](O)C[C@@H](O)CC(=O)O)[C@H]21 | -1.21 ± 0.66 | 
10 | CC(C)(C)NCC(O)COc1cccc2c1CC(O)C(O)C2 (stereo unspecified) | 0.907 ± 2.2 | 
11 | O=C(CCCCC(=O)Nc1c(I)cc(I)c(C(=O)O)c1I)Nc1c(I)cc(I)c(C(=O)O)c1I | -0.131 ± 0.5 | 
12 | CNCC[C@@H](Oc1ccccc1C)c1ccccc1 | 0.146 ± 0.67 | 
13 | Cc1ccc(C(=O)C(C)CN2CCCCC2)cc1 (stereo unspecified) | -0.627 ± 0.62 | 
14 | O=C(O)Cc1cc(I)c(Oc2ccc(O)c(I)c2)c(I)c1 | 0.261 ± 0.99 | 
15 | COCCCOc1ccnc(C[S+]([O-])c2nc3ccccc3[nH]2)c1C (stereo unspecified) | -0.209 ± 0.84 | 
16 | C[C@@H](Oc1cc(-c2cnn(C3CCNCC3)c2)cnc1N)c1c(Cl)ccc(F)c1Cl [Crizotinib] | 0.539 ± 0.26 | 
17 | N=C(N)N1CCc2ccccc2C1 | 0.17 ± 0.53 | 
18 | CC1=CC(=O)c2ccccc2C1=O | 0.331 ± 0.51 | 
19 | CC(=O)/N=c1/sc(S(N)(=O)=O)nn1C | 0.678 ± 0.67 | 
20 | CCCc1nc2c(C)cc(-c3nc4ccccc4n3C)cc2n1Cc1ccc(-c2ccccc2C(=O)O)cc1 | 0.00631 ± 0.92 | 
21 | CCCCOC(=O)c1ccc(O)cc1 | -0.634 ± 2 | 

Row | SMILES | mitochondrial oxygen consumption rate normalised (2 µM) | mitochondrial oxygen consumption rate normalised (10 µM)
22 | C#C[C@]1(OC(C)=O)CC[C@H]2[C@@H]3CCC4=CC(=O)CC[C@@H]4[C@H]3CC[C@@]21C | -1.39 ± 0.79 | 
23 | COCCCOc1cc(C[C@@H](C[C@H](N)[C@@H](O)C[C@H](C(=O)NCC(C)(C)C(N)=O)C(C)C)C(C)C)ccc1OC | 0.167 ± 0.15 | 0.624 ± 0.066
24 | CCCCC1C(=O)N(c2ccccc2)N(c2ccccc2)C1=O | -0.557 ± 0.3 | 
25 | O=C(Nc1ccccc1)OCC(CN1CCCCC1)OC(=O)Nc1ccccc1 (stereo unspecified) | 0.191 ± 0.48 | 
26 | N=C(N)c1ccc(N=NNc2ccc(C(=N)N)cc2)cc1 | -0.858 ± 0.17 | 
27 | CO/N=C(\C(=O)N[C@@H]1C(=O)N2C(C(=O)O)=C(CSC(=O)c3ccco3)CS[C@H]12)c1csc(N)n1 | -0.274 ± 0.7 | 
28 | CCCC(=O)Nc1ccc(OCC(O)CNC(C)C)c(C(C)=O)c1 (stereo unspecified) | 0.515 ± 1 | 
29 | C[C@@H]1O[C@@H](OC[C@H]2O[C@@H](Oc3c(-c4ccc(O)c(O)c4)oc4cc(O)cc(O)c4c3=O)[C@H](O)[C@@H](O)[C@@H]2O)[C@H](O)[C@H](O)[C@H]1O | -1.21 ± 1.6 | 
30 | CC(=O)OCC(=O)[C@@]12OC3(CCCC3)O[C@@H]1C[C@H]1[C@@H]3CCC4=CC(=O)C=C[C@]4(C)[C@@]3(F)[C@@H](O)C[C@@]12C | 0.0223 ± 1.8 | 
31 | Cc1oc(=O)oc1CN1CCN(c2cc3c(cc2F)c(=O)c(C(=O)O)c2n3C(C)S2)CC1 (stereo unspecified) | -0.346 ± 0.13 | 0.0314 ± 0.4
32 | C=COCC(F)(F)F | -0.243 ± 0.17 | 
33 | N[C@@H](CC(=O)N1CCn2c(nnc2C(F)(F)F)C1)Cc1cc(F)c(F)cc1F | -0.249 ± 0.83 | 
34 | CC1(C)[C@@H](O)CC[C@]2(C)[C@H]3C(=O)C=C4[C@@H]5C[C@@](C)(C(=O)O)CC[C@]5(C)CC[C@@]4(C)[C@]3(C)CC[C@@H]12 | 0.119 ± 0.26 | 
35 | C[C@]12CCC(=O)C=C1C=C[C@@H]1[C@@H]2CC[C@@]2(C)[C@H]1CC[C@@]21CCC(=O)O1 | 0.573 ± 1.6 | 
36 | CN1C(C(=O)Nc2ccccn2)=C(O)c2ccccc2S1(=O)=O | -0.0962 ± 0.26 | 
37 | COc1c(C)c2c(c(O)c1C/C=C(\C)CCC(=O)OCCN1CCOCC1)C(=O)OC2 | 0.221 ± 1.9 | 
38 | NCCS | 0.247 ± 0.26 | 
39 | COCCOC(=O)C1=C(C)NC(C)=C(C(=O)OC(C)C)C1c1cccc([N+](=O)[O-])c1 (stereo unspecified) | 0.79 ± 1.5 | 
40 | O=C(O)C(O)C(O)C(=O)O (stereo unspecified) | 0.514 ± 0.43 | 
41 | COc1ccc(CN(CCN(C)C)c2ncccn2)cc1 | 0.308 ± 0.68 | 
